Numbering of substitutions follows the chain as printed. Names and notes keep the numbering of the source. These are yes or no findings as the source states them, for the method shown. Binding seen in cells or lysates may run through a third protein. Some binding calls cover weakened binding; strength is not graded here. Where a sequence is shown, tags or fusion partners need not be part of it.
T1: Myc-tagged Drosophila Gemin3 (Myc-dGem3) (Drosophila) (UniProt Q9V3C4)
T1 sequence: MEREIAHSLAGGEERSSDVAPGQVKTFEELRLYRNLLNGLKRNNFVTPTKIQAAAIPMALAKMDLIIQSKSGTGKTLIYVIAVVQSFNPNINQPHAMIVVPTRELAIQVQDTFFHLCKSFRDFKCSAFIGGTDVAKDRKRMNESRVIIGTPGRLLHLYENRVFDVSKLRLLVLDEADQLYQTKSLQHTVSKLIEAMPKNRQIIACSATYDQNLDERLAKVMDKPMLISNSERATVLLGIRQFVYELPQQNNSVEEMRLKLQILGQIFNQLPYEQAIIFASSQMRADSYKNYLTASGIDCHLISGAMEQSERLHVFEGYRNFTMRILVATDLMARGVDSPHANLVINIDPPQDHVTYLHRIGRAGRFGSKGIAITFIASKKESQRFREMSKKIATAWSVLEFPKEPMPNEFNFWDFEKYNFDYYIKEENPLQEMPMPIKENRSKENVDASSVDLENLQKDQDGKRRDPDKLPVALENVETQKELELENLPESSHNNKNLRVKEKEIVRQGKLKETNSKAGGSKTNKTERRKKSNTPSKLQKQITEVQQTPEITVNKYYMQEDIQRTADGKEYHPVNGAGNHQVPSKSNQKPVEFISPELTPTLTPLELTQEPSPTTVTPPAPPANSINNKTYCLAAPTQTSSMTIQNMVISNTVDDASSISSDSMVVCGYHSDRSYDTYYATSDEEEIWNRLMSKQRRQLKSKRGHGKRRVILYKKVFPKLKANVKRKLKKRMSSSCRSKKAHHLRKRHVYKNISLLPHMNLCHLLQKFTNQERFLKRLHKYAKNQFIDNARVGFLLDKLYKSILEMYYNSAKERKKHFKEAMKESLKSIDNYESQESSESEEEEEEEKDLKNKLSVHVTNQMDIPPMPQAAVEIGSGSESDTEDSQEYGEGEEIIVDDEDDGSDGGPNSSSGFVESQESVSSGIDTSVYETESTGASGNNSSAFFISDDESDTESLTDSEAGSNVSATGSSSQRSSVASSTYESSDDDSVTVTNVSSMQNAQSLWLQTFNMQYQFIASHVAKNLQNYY

Chains of the proteins cited; added tags and fusions are not shown.
UniProt Q9VU02: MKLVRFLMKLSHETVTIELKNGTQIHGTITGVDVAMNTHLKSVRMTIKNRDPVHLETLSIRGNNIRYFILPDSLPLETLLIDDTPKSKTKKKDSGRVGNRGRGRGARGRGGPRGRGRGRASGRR

T2: FLAG-tagged wild-type Drosophila SMN (Flag-dSMN WT) (Drosophila melanogaster) (UniProt Q9VV74)
T2 sequence: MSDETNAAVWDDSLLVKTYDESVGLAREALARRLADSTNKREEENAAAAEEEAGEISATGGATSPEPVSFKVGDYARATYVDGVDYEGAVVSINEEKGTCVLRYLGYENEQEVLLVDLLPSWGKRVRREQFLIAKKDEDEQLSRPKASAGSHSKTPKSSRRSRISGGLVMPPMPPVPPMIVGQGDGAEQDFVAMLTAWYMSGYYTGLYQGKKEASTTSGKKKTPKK

T3: FLAG-tagged dSMN(G206S) (Drosophila melanogaster) (UniProt Q9VV74)
T3 sequence: T2 sequence with G206S

T4: FLAG-tagged dSMN(G210V) (Drosophila melanogaster) (UniProt Q9VV74)
T4 sequence: T2 sequence with G210V

T5: FLAG-tagged dSMN(Y203C) (Drosophila melanogaster) (UniProt Q9VV74)
T5 sequence: T2 sequence with Y203C

T6: FLAG-tagged dSMN(D20V) (Drosophila melanogaster) (UniProt Q9VV74)
T6 sequence: T2 sequence with D20V

B1: FLAG-tagged wild-type Drosophila SMN (Flag-dSMN WT) (protein, UniProt Q9VV74 1-226)
chain: T2 sequence
B2: FLAG-tagged dSMN(T205I) (protein, UniProt Q9VV74 1-226)
chain: T2 sequence with T205I
B3: FLAG-tagged dSMN(D20V) (protein, UniProt Q9VV74 1-226)
chain: T2 sequence with D20V
B4: dSMN(F70S) (protein, UniProt Q9VV74 1-226)
chain: T2 sequence with F70S
B5: dSMN(V72G) (protein, UniProt Q9VV74 1-226)
chain: T2 sequence with V72G
B6: dSMN(G73R) (protein, UniProt Q9VV74 1-226)
chain: T2 sequence with G73R
B7: dSMN(I93F) (protein, UniProt Q9VV74 1-226)
chain: T2 sequence with I93F
B8: dSMN(Y107C) (protein, UniProt Q9VV74 1-226)
chain: T2 sequence with Y107C
B9: FLAG-tagged dSMN(M194R) (protein, UniProt Q9VV74 1-226)
chain: T2 sequence with M194R
B10: FLAG-tagged dSMN(Y203C) (protein, UniProt Q9VV74 1-226)
chain: T2 sequence with Y203C
B11: FLAG-tagged dSMN(G206S) (protein, UniProt Q9VV74 1-226)
chain: T2 sequence with G206S
B12: dSMN(G210C) (protein, UniProt Q9VV74 1-226)
chain: T2 sequence with G210C
B13: FLAG-tagged dSMN(G210V) (protein, UniProt Q9VV74 1-226)
chain: T2 sequence with G210V
B14: Myc-tagged wild-type Drosophila SMN (Myc-WT dSMN) (protein, UniProt Q9VV74 1-226)
chain: T2 sequence
B15: Myc-tagged Drosophila Gemin2 (Myc-dGem2) (protein, UniProt Q9VVX0 1-245)
chain: MQHEPEDQTFQLQALEICEPDSSFDPQKPPESGEEYLMHMFYERKRCPAVVTKRSSKIRNNTGNTTLEMLDNPELPPFKCLLPTPEWRDEQVKSFQAARSQVLVLRKELANNNYDQSGEPPLTSDQEKWKEFCRNQQPLLSTLLHLTQNDLELLLEMLSKWLQDPNTTVDLLHDVWLARWLYATLVCLHLPLEPHVFSTLRYIARTCIHLRNQLKEDEVQRAAPYNLLLTLTVQVFAQNDFKDYI

Tests used:
[1] = target: T1, Myc-tagged Drosophila Gemin3 (Myc-dGem3) (Drosophila); test: co-IP; S2 cells co-transfected with Flag-dSMN and Myc-dGem3; immunoprecipitation of Myc-dGem3 with anti-Myc agarose, western blot with anti-FLAG (Fig. 3C)
[2] = target: T2, FLAG-tagged wild-type Drosophila SMN (Flag-dSMN WT) (Drosophila melanogaster); test: co-IP; S2 cells co-transfected with FLAG-tagged dSMN and a Myc-tagged partner (dSMN or dGem2); lysis buffer 50 mM Tris-HCl pH 7.5, 150 mM NaCl, 1 mM EDTA, 1% NP-40, 10% glycerol; immunoprecipitation with anti-FLAG agarose, western blot with anti-Myc (Fig. 3A, 3B, 6A)
SmD1 = SmD1 (UniProt Q9VU02); test: co-IP; S2 cell co-transfection assay 'similar to that in Fig. 3'; no figure shown; tags and who was precipitated are not told
[3] = target: T3, FLAG-tagged dSMN(G206S) (Drosophila melanogaster); test: co-IP; S2 cells co-transfected with FLAG-tagged dSMN and a Myc-tagged partner (dSMN or dGem2); lysis buffer 50 mM Tris-HCl pH 7.5, 150 mM NaCl, 1 mM EDTA, 1% NP-40, 10% glycerol; immunoprecipitation with anti-FLAG agarose, western blot with anti-Myc (Fig. 3A, 3B, 6A)
[4] = target: T4, FLAG-tagged dSMN(G210V) (Drosophila melanogaster); test: as above
[5] = target: T5, FLAG-tagged dSMN(Y203C) (Drosophila melanogaster); test: as above
[6] = target: T6, FLAG-tagged dSMN(D20V) (Drosophila melanogaster); test: as above

binding (SmD1)	further results	Binder
	binding [1]: binds; binding [2]: binds	B1
binds	binding [1]: binds	B2
binds		B3
binds		B4
binds		B5
binds		B6
binds		B7
binds		B8
binds		B9
binds		B10
binds		B11
binds		B12
binds		B13
	binding [3]: binds; binding [4]: binds; binding [5]: binds	B14
	binding [6]: binds weakly; binding [2]: binds	B15

— paper PMC4140637
